In patent US20220242904A1:
No constants are given. Whether binding was seen depends on the method and setting. Some entries that bind do so weakly or less than the wild type.

Sequences of proteins named here, by UniProt entry; tags and fusion partners are left off.
UniProt P05556: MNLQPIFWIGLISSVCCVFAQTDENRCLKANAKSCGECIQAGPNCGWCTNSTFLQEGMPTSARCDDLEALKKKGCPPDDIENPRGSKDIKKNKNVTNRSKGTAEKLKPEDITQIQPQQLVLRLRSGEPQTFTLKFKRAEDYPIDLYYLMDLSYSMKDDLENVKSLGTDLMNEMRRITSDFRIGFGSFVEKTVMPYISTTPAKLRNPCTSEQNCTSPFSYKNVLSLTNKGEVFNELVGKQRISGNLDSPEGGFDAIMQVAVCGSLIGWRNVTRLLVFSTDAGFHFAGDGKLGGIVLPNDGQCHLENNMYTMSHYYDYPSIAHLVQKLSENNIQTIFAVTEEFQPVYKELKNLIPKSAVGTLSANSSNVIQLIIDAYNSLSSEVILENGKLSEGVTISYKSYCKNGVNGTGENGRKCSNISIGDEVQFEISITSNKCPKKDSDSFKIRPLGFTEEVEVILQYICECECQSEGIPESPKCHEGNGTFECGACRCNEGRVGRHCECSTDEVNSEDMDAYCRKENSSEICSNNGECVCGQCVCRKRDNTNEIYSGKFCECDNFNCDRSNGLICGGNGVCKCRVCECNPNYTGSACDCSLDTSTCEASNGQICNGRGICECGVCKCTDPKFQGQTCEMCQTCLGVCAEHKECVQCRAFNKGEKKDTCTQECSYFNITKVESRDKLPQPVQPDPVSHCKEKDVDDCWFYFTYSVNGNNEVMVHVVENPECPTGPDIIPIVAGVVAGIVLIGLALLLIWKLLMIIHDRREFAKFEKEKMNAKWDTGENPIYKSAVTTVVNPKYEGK

Target: integrin beta 1 (of HT29 colonic epithelial cells) (UniProt P05556)
Assay: immunoprecipitation with anti-biotin antibody from HT29 cells treated with biotin-labeled peptide (200 and 400 µg/ml), western blot with anti-integrin antibodies

binding: binds
Binder: YGLRSKSKKFRRPDIQYPDAT (labeled with biotin (position not given)) [peptide of SEQ ID NO: 1 labeled with biotin]
